Some entries share one result that the patent states for a list of compounds.
Legend:
wild-type S. typhimurium [1] = assay: Persistence of S. typhimurium in tomato fruits after preventive or curative SM treatment; assay type: in vivo; settings: pretreatment by soaking and spraying before inoculation; green mature and ripened stage
sheep red blood cells = assay: Hemolytic activity in sheep RBCs; assay type: cell-based; settings: 200 μM, one-hour treatment
Method: (§1) Briefly, 200 μl of 10% sheep red blood cells (RBCs; LAMPIRE Biological Laboratories, Pipersville, PA) suspension was incubated with 1 μl of SMs (200 μM) for one hour at 37° C. in a sterile, non-treated, flat bottom plate 96-well. After incubation, the plate was centrifuged at 4000 rpm for 5 min at 4° C., then placed on ice for five min. 100 μL of the supernatant was transferred into a new sterile, treated, flat bottom 96-well plate, and the OD was measured at 540 nm. For this experiment, 2% DMSO (negative control) and 0.1% Triton-100X (positive control) were used. % Hemolysis=(OD540 SM−OD540 DMSO)/(OD540 1× triton−OD540 PBS)×100. Similar experiment was performed with chicken RBCs (OARDC, Ohio).

chicken red blood cells = assay: Hemolytic activity in chicken RBCs; assay type: cell-based; settings: 200 μM, one-hour treatment
Method: as §1

wild-type S. typhimurium [2] = assay: Persistence of S. typhimurium in tomato seedlings after SM treatment; assay type: in vivo; settings: days 1, 3 and 7 post-inoculation; leaves sprayed, 2×MBC

Compound | prevention of Salmonella growth in tomato fruits (wild-type S. typhimurium [1]) | hemolytic activity in sheep RBCs (sheep red blood cells) | hemolytic activity in chicken RBCs (chicken red blood cells) | reduction of Salmonella persistence in young tomato seedlings (wild-type S. typhimurium [2])
CCCCCCCCCCCCCCCCn1c[n+](C)c2ccccc21.[Br-] [SM4, 1-hexadecyl-3-methyl-1H-3,1-benzimidazol-3-ium bromide] | up to 95% | below 18% | below 49% | up to 79%
CCCCCCCCCCCCCCCC[n+]1ccn(CC#N)c1.[Cl-] [SM3, 1-(cyanomethyl)-3-hexadecyl-1H-imidazol-3-ium chloride] | up to 95% | below 18% | below 49% | –
CC1CCC(C(C)C)C(OC(=O)Cn2c[n+](CC(=O)OC3CC(C)CCC3C(C)C)c3ccccc32)C1.[Cl-] (stereo not drawn) [SM1, 1,3-bis{2-[(2-isopropyl-5-methylcyclohexyl)oxy]-2-oxoethyl}-1H-3,1-benzimidazol-3-ium chloride] | up to 95% | – | – | up to 79%

Reference: patent publication US12161630B2, “Methods to control infection using new generation small molecule growth inhibitors” (priority 2017, dated 2024)
